The target of this assay is T1, Mouse Sirt1-FLAG-HA (Sirtuin 1) (mouse) (UniProt Q923E4).
T1 sequence: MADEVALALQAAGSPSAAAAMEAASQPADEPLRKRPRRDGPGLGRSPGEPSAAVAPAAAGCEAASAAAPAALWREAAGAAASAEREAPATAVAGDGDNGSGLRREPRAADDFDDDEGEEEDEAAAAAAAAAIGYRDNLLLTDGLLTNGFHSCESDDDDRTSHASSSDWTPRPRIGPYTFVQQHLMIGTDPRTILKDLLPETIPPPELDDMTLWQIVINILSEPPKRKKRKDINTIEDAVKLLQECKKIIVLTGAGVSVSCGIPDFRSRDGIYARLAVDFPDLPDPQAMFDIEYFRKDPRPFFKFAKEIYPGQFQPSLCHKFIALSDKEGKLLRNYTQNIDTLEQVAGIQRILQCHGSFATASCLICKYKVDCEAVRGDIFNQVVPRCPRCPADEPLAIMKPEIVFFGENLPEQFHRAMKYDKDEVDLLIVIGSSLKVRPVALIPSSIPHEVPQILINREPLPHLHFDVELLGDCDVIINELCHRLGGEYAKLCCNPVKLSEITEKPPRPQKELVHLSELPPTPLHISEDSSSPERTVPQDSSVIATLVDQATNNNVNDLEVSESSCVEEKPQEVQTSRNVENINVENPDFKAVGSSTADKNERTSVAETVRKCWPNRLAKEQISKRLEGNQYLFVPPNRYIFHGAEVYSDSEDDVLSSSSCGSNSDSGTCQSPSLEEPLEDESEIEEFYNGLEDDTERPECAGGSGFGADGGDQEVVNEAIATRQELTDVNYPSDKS
Description: co-IP; HEK293T cells transfected with pcDNA3.1-rEED-V5-His, LVI-Flag-HA-mSirt1 or both; lysis in 25 mM Tris pH 7.4, 150 mM NaCl, 1 mM EDTA, 1 mM EGTA, 1% Triton X-100; immunoprecipitation with V5 or HA antibody and protein A agarose overnight at 4 °C; blots probed for V5 or HA (reciprocal).

These are yes or no findings as the source states them, for the method shown. In cells and extracts the contact can be indirect. A result given as binding can be weak or reduced; the word gives no strength. Tags and fused reporters may be left off the sequences shown.

Regarding “rat EED-V5-His (pcDNA3.1-rEED-V5-His) (from UniProt B5DF02)”, the binding entry is on record as “binds”.

The values are drawn from article PMC6179991.
